Source: the supplement of paper PMC10849652
The other results are listed elsewhere or left out.

By UniProt entry, the sequences of proteins in these tests, tags left out. Where a name states a change or a piece, a line headed by the entry shows the natural chain unless it says otherwise.
UniProt P31641: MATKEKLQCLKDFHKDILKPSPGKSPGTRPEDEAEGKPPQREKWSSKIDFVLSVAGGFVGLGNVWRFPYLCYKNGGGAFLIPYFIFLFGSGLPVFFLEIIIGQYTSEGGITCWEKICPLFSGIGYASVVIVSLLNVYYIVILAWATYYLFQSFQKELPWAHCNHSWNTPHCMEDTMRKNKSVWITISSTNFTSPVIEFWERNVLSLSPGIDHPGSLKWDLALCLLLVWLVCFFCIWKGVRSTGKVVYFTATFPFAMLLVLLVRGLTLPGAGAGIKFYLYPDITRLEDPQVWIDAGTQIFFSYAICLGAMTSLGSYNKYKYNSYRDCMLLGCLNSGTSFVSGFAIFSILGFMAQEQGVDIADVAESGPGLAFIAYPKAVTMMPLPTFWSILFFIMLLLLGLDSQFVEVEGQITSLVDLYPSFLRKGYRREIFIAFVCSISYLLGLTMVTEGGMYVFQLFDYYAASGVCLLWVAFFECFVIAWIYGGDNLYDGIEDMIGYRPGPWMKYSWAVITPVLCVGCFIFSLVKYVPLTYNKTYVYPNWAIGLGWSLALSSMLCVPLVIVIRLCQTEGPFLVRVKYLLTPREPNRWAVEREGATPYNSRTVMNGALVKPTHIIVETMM
UniProt O14975, whole entry, looked up: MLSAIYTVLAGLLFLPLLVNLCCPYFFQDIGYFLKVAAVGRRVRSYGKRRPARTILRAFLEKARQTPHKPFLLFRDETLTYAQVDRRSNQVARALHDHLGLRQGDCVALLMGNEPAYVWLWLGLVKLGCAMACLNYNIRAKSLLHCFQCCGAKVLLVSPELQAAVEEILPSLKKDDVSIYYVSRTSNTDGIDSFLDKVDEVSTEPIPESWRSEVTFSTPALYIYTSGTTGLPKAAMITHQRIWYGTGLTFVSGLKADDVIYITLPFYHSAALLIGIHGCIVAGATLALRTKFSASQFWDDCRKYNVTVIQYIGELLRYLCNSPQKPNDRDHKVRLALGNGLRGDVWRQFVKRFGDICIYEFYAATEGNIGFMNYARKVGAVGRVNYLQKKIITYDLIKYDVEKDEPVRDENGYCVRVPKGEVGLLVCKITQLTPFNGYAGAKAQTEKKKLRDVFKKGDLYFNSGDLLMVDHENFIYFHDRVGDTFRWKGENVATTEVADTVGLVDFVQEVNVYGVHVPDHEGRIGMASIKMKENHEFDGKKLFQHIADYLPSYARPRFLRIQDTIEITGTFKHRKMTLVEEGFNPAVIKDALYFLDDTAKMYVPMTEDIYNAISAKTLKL
UniProt Q6YBV0: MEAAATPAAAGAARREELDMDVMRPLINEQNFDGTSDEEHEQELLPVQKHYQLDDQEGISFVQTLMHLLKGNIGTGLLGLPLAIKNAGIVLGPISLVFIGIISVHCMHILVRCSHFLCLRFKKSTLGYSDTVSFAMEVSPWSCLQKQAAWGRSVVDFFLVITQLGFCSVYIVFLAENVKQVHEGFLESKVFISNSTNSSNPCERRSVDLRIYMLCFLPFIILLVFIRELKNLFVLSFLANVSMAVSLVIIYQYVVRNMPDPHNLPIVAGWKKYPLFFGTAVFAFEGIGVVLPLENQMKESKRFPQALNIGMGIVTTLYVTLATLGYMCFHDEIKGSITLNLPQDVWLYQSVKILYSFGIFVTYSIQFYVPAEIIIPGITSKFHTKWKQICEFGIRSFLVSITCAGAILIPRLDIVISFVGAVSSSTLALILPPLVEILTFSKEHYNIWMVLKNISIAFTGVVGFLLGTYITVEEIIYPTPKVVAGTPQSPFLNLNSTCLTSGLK
UniProt Q9BXS9: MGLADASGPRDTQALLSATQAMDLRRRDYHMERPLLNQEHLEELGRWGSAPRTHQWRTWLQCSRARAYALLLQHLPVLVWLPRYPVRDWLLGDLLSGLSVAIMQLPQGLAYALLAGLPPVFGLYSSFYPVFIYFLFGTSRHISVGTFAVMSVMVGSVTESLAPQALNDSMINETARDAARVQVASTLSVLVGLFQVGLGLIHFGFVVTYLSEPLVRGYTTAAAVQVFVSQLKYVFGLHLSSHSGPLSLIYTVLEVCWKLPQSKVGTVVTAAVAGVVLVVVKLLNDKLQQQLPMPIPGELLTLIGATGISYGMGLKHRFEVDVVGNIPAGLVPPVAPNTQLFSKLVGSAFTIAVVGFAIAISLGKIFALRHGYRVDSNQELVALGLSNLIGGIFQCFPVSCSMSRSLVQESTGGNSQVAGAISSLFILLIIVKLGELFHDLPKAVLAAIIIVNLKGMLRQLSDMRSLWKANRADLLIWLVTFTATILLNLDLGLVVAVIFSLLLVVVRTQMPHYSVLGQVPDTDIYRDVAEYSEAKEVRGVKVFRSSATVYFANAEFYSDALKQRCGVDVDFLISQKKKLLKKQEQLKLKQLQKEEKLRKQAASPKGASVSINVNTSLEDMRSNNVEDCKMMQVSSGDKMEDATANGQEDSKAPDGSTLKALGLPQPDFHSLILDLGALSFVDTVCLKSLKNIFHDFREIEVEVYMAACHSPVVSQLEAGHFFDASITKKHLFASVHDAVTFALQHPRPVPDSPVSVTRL
UniProt P19634, whole entry, looked up: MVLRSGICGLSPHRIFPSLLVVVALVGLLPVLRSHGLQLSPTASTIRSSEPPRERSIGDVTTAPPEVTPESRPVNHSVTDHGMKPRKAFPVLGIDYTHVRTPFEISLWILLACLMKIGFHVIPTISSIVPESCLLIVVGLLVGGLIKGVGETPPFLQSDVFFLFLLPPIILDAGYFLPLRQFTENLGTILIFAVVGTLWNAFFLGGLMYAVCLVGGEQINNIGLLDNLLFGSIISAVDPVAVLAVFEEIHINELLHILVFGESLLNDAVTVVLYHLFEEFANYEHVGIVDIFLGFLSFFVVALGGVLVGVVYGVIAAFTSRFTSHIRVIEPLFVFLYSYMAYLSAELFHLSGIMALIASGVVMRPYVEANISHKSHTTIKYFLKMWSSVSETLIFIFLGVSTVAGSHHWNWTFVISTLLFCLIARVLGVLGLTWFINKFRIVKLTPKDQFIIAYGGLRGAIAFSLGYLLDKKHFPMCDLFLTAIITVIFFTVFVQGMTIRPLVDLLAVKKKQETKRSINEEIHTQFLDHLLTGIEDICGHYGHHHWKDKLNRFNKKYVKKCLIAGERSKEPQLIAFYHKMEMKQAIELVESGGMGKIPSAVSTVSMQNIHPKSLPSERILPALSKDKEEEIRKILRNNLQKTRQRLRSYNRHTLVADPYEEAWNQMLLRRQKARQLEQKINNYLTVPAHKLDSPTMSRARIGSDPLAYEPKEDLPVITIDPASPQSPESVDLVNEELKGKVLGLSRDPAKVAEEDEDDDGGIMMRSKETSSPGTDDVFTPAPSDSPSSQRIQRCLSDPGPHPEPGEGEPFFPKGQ
UniProt Q9Y6M7: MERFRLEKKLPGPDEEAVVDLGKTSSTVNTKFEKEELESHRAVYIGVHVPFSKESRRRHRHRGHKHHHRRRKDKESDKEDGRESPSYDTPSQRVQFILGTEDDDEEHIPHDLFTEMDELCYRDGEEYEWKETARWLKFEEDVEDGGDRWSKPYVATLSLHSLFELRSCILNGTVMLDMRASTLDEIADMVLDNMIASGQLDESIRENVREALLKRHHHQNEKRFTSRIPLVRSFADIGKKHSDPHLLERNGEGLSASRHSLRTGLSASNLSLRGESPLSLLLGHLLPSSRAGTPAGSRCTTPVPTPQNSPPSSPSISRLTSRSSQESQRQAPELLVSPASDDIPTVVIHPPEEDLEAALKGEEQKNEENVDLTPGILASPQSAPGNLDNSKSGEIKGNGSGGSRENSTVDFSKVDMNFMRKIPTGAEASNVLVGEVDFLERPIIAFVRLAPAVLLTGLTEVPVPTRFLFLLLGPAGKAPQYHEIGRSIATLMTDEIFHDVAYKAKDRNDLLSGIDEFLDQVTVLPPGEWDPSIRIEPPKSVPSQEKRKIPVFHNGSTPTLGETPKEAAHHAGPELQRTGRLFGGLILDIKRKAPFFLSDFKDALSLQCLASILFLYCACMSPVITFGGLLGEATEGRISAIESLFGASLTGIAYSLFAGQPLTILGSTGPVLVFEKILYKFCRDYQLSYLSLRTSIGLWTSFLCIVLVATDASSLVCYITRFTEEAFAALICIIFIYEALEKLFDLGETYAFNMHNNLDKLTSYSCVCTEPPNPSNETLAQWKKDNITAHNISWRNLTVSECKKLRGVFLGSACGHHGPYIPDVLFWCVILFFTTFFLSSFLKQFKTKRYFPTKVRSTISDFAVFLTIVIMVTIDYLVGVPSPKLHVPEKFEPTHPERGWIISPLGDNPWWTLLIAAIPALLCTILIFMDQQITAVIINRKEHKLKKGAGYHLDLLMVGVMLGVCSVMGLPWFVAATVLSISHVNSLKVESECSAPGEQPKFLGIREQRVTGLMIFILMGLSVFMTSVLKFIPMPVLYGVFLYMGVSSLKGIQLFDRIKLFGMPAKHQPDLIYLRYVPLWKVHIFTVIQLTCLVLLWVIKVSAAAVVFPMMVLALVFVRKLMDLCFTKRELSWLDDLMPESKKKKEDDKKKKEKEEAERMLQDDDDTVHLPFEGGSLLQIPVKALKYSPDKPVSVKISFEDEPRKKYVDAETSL
UniProt L0R6Q1: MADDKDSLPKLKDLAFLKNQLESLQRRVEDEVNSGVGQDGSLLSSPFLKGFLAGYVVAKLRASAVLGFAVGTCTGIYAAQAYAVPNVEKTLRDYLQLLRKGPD
UniProt Q15599: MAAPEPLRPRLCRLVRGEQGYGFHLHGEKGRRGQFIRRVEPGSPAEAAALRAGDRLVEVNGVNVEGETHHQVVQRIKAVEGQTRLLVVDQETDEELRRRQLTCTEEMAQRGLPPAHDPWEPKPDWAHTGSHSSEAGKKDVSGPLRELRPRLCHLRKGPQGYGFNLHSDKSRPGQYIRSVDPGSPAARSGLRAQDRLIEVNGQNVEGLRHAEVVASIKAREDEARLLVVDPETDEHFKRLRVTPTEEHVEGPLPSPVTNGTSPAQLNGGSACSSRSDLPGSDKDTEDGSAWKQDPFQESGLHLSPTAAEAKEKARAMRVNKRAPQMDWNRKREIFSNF
UniProt P48029: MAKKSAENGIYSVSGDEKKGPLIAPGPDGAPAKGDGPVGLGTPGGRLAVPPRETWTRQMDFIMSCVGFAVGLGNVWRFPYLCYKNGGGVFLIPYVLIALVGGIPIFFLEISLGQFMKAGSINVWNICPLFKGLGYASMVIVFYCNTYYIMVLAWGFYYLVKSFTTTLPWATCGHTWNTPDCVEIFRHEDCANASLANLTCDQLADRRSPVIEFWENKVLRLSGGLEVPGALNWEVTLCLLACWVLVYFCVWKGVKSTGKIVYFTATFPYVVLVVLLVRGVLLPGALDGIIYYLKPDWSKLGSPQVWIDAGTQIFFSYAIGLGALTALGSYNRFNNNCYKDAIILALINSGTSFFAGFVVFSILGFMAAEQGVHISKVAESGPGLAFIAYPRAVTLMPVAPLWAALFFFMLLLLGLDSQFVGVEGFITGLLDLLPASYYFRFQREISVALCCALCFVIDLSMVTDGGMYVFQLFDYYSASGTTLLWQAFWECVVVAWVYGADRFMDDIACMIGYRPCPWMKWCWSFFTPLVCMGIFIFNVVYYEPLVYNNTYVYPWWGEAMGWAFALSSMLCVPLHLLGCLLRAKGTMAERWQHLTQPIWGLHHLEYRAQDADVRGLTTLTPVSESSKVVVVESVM
UniProt Q9Y6M5: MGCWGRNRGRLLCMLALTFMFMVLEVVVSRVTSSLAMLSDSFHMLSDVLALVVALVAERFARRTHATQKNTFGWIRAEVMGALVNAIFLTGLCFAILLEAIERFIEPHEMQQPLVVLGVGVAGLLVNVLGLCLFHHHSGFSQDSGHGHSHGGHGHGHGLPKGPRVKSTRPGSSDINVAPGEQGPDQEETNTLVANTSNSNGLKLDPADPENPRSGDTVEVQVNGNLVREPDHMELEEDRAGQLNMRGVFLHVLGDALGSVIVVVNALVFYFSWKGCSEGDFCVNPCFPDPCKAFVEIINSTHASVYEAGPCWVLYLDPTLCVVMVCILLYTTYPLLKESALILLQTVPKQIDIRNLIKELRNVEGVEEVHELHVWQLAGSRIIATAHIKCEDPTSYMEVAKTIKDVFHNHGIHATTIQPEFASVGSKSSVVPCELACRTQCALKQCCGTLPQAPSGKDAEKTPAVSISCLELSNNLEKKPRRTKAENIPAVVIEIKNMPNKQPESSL
UniProt Q8IYB5: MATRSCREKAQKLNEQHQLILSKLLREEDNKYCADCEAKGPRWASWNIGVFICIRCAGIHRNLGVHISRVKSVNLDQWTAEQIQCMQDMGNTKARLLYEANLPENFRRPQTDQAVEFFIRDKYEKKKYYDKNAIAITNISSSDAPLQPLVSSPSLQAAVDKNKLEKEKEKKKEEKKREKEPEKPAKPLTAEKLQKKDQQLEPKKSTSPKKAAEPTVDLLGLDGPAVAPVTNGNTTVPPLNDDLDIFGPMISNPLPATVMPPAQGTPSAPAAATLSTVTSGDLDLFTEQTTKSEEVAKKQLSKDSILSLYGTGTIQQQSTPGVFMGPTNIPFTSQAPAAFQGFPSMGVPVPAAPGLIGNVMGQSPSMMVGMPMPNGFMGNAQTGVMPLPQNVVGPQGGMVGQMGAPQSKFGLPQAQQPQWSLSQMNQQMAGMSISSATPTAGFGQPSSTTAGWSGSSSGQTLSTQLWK

Compound: Cc1ncc(-c2ccnc(Nc3ccc(S(C)(=O)=O)cc3)n2)n1C(C)C
Assay: log2 fold change, soluble protein after heating vs DMSO (PISA); higher = thermal stabilisation; K562 lysate, 10 uM; active = over 0.2 and 3.5 SD of the protein, either way, in both replicates (recomputed)
Method in brief: (§1)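 Values give the log-two fold change in thermal stability against solvent controls, from duplicates. Crude K562 extract at 1 mg/mL protein, made by dounce homogenisation in PBS pH 7.4 with 1 mM MgCl2, was treated with 10 μM compound for 30 min. After 3 min heating across 48°C-58°C, aliquots were pooled, adjusted to 0.5% NP-40 at 4°C and centrifuged at 21,000xg for 90 min. The supernatant was measured by TMTpro 16plex LC-MS/MS with channel sums equalised.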

log2 fold change, inactive:
SLIRP (UniProt Q9GZT3) 0.001
SLC25A13 isoform 2 (UniProt Q9UJS0) -0.012
SLC2A1 (UniProt P11166) -0.059
SLC25A22 (UniProt Q9H936) 0.007
SLC44A2 (UniProt Q8IWA5) -0.049
SLC33A1 (UniProt O00400) -0.003
SLC25A3 isoform 2 (UniProt Q00325) 0.001
SLC38A9 (UniProt Q8NBW4) 0.016
SLC6A6 (UniProt P31641) -0.004
SLC30A7 (UniProt Q8NEW0) -0.055
SLC7A5 (UniProt Q01650) 0.014
SLC38A7 (UniProt Q9NVC3) -0.097
SLC43A3 isoform 2 (UniProt Q8NBI5) -0.041
SLC4A1AP (UniProt Q9BWU0) 0.002
SLC27A2 (UniProt O14975) -0.053
SLC36A4 (UniProt Q6YBV0) 0
SLC26A6 (UniProt Q9BXS9) 0.164
SLC25A21 (UniProt Q9BQT8) -0.011
SLC25A4 (UniProt P12235) -0.038
SLC38A10 (UniProt Q9HBR0) 0.05
SLC25A42 (UniProt Q86VD7) 0.005
SMAP (UniProt O00193) 0.071
SLC3A2 isoform 3 (UniProt P08195) 0.021
SLC25A25 isoform 3 (UniProt Q6KCM7) -0.063
SLC9A1 (UniProt P19634) -0.016
SLC4A7 isoform 7 (UniProt Q9Y6M7) 0.016
SLC35A4 (UniProt L0R6Q1) 0.132
SLC9A3R2 (UniProt Q15599) 0.014
SMAD4 (UniProt Q13485) -0.021
SLC6A8 isoform 2 (UniProt P48029) -0.019
SLC4A2 (UniProt P04920) -0.003
SLC30A1 (UniProt Q9Y6M5) 0.023
SLC25A31 (UniProt Q9H0C2) -0.009
SMAP2 (UniProt Q8WU79) 0.037
SLC6A8 (UniProt P48029) 0.045
SLC25A5 (UniProt P05141) 0.03
SLC25A1 (UniProt P53007) 0.016
SMAP1 isoform 2 (UniProt Q8IYB5) -0.017

Compound: Cn1cc(-c2ccc3c(c2)CCN3C(=O)Cc2cccc(C(F)(F)F)c2)c2c(N)ncnc21
Assay: as above
Method in brief: as §1

log2 fold change, inactive:
SLIRP (UniProt Q9GZT3) 0.014
SLC25A13 isoform 2 (UniProt Q9UJS0) -0.023
SLC2A1 (UniProt P11166) -0.006
SLC25A22 (UniProt Q9H936) 0.019
SLC44A2 (UniProt Q8IWA5) -0.066
SLC33A1 (UniProt O00400) -0.07
SLC25A3 isoform 2 (UniProt Q00325) -0.023
SLC38A9 (UniProt Q8NBW4) -0.023
SLC6A6 (UniProt P31641) 0.008
SLC30A7 (UniProt Q8NEW0) -0.102
SLC7A5 (UniProt Q01650) 0.008
SLC38A7 (UniProt Q9NVC3) 0.016
SLC43A3 isoform 2 (UniProt Q8NBI5) -0.027
SLC4A1AP (UniProt Q9BWU0) -0.002
SLC27A2 (UniProt O14975) -0.011
SLC36A4 (UniProt Q6YBV0) -0.09
SLC26A6 (UniProt Q9BXS9) -0.154
SLC25A21 (UniProt Q9BQT8) 0.016
SLC25A4 (UniProt P12235) 0.004
SLC38A10 (UniProt Q9HBR0) -0.031
SLC25A42 (UniProt Q86VD7) -0.041
SMAP (UniProt O00193) 0.013
SLC3A2 isoform 3 (UniProt P08195) -0.007
SLC25A25 isoform 3 (UniProt Q6KCM7) 0.031
SLC9A1 (UniProt P19634) 0.02
SLC4A7 isoform 7 (UniProt Q9Y6M7) 0.02
SLC35A4 (UniProt L0R6Q1) -0.01
SLC9A3R2 (UniProt Q15599) 0.023
SMAD4 (UniProt Q13485) -0.023
SLC6A8 isoform 2 (UniProt P48029) -0.075
SLC4A2 (UniProt P04920) 0.029
SLC30A1 (UniProt Q9Y6M5) 0.021
SLC25A31 (UniProt Q9H0C2) -0.007
SMAP2 (UniProt Q8WU79) 0.06
SLC6A8 (UniProt P48029) -0.008
SLC25A5 (UniProt P05141) 0
SLC25A1 (UniProt P53007) -0.05
SMAP1 isoform 2 (UniProt Q8IYB5) -0.033
